# Laboratory results reported in PubChem BioAssay AID504467 (National Center for Advancing Translational Sciences (NCATS), 2011).
# Hit rate of the full screen: of about 330,000 compounds, about 7,700 (2.3%) were called active. This list was built around the results that the source calls inconclusive (neither active nor inactive); the mix of calls is not that of the screen. Calls follow the shape of the dose curve; as a rule, active = well fitted inhibition curve with a large enough effect; inconclusive = small, poorly fitted or top-dose-only effect, or effect the other way; inactive = flat fitted curve, though single readings scatter. A potency beside an inconclusive call is a rough fit, not a confirmed value.
# Test: qHTS screen for small molecules that inhibit ELG1-dependent DNA repair in human embryonic kidney (HEK293T) cells expressing luciferase-tagged ELG1; also: nearly all actives have a fitted effect of over 55% in size
# Details: HEK293T ELG1-luciferase reporter, luminescence, 16 h, DNA damage induced by 5-fluorouridine; activity change, negative = inhibition: at 46.1 µM (top of the series)
# In short: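 Overnight (16 hr) co-exposure of 2,000 cells/well to 5-fluorouridine and compound at 37 °C preceded detection. Luciferase was quantified via ONE-Glo luminescence; loss of signal denotes inhibition.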
# % is scaled to controls: 0 for no effect and ±100 for the full control effect; potency is read from the fitted curve at half-maximal effect.
Compound,"activity change, negative = inhibition",Potency
CCc1ccc(-c2nnn(CC(=O)N(C3CCCC3)C3CCS(=O)(=O)C3)n2)cc1 (centres undefined),inactive: 7.14%,–
COc1cc(C2C=C(C34CC5CC(CC(C5)C3)C4)NC(=S)N2)cc(OC)c1OC (centres undefined),–,active: 23.1 µM
C=C(C)Cn1c(N2CCC(Cc3ccccc3)CC2)nc2c1c(=O)[nH]c(=O)n2C,–,"inconclusive: 18.4 µM [inhibitor, single point]"
Cc1cc(C(=O)OCC(=O)Nc2sc3c(c2C#N)CCC(C)C3)c2ccccc2n1 (centres undefined),–,"inconclusive: 18.4 µM [activator, partial curve, poor fit]"
CCC(COC(=O)Nc1ccccc1)NC(=O)OC(C)C (centres undefined),–,"inconclusive: 18.3 µM [activator, single point]"
O=C(NCc1cccnc1)C1CCN(c2ccc(S(=O)(=O)N3CCOCC3)cc2Cl)CC1,–,active: 16.4 µM
CCOc1ccc(NC(=O)CN(C)C(=O)Cc2c(C)nc3ccccc3c2C)cc1OCC,–,"inconclusive: 18.3 µM [inhibitor, partial curve, poor fit]"
Cc1ccccc1C(=O)N/N=C/c1ccccn1,–,"inconclusive: 7.31 µM [activator, partial curve]"
CCOc1ncccc1C(=O)N(CC)CC(=O)NCc1ccc(Cl)cc1,inactive: -1.03%,–
C=CCN(CC=C)S(=O)(=O)c1ccc(C(=O)Nc2sc3c(c2C(N)=O)CCCCC3)cc1,–,"inconclusive: 32.6 µM [activator, single point]"
COc1ccc(C(=O)N2CCN(c3ccc([N+](=O)[O-])c(NCCc4ccc(OC)c(OC)c4)c3)CC2)cc1,–,"inconclusive: 25.9 µM [inhibitor, partial curve, poor fit]"
Cc1ccc(C)c(N(C(=O)c2csnn2)C(C(=O)NC2CCCC2)c2ccncc2)c1 (centres undefined),inactive: 6.8%,–
Cc1cc(O)c(C(=O)/C=C/c2ccccc2)c(=O)o1,inactive: -10.1%,–
CCOC(=O)c1c(C)[nH]c(C(=O)COC(=O)/C=C/c2ccc(O)c(OC)c2)c1C,inactive: -8.05%,–
COc1cccc(C(=O)Nc2cc(C(=O)NCc3ccc(C)cc3)ccc2N2CCC3(CC2)CC(c2cccc(Br)c2)=NO3)c1,inactive: 0.935%,–
Cc1nnsc1C(=O)Nc1ccc(S(=O)(=O)N2CCCC(C)C2)cc1 (centres undefined),inactive: -16.8%,–
Fc1ccccc1COc1ccc(/C=N/NC(=S)NCc2ccccc2)cc1,–,"inconclusive: 29.1 µM [activator, single point]"
Cc1ccc2nc(-c3ccc(SCC(=O)Nc4ccc5c(c4)OCCO5)nc3)[nH]c2c1,–,"inconclusive: 2.06 µM [activator, partial curve]"
CCNC(=S)NNC(=O)c1cc(-c2cccc(OC)c2)nc2ccccc12,–,"inconclusive: 18.4 µM [activator, single point]"

# Among those listed so far, these contain an aryl methoxy group:
Compound,"activity change, negative = inhibition",Potency
COc1cc(C2C=C(C34CC5CC(CC(C5)C3)C4)NC(=S)N2)cc(OC)c1OC (centres undefined),–,active: 23.1 µM
COc1ccc(C(=O)N2CCN(c3ccc([N+](=O)[O-])c(NCCc4ccc(OC)c(OC)c4)c3)CC2)cc1,–,"inconclusive: 25.9 µM [inhibitor, partial curve, poor fit]"
CCOC(=O)c1c(C)[nH]c(C(=O)COC(=O)/C=C/c2ccc(O)c(OC)c2)c1C,inactive: -8.05%,–
COc1cccc(C(=O)Nc2cc(C(=O)NCc3ccc(C)cc3)ccc2N2CCC3(CC2)CC(c2cccc(Br)c2)=NO3)c1,inactive: 0.935%,–
CCNC(=S)NNC(=O)c1cc(-c2cccc(OC)c2)nc2ccccc12,–,"inconclusive: 18.4 µM [activator, single point]"
